# Experimental data taken from the odorant receptor screen of Mainland et al. (2015).
# Several values for one entry are separate records, joined by “and”; a condition that tells them apart may be missing. Equal values may be shown once. Some of the results follow. Single wells; the ratio to wells without odorant was worked out here, and repeats agree poorly.
# Tested on: OR8G5 clone 1493
# Test: odorant receptor activation (CRE luciferase / Renilla) (fold of no-odor wells); higher = more activation
# Settings: 100 µM
row,SMILES,odorant receptor activation
1,CCC(C)=O [2-butanone],1.05
2,CS [methanethiol],0.982
3,CCOc1cc(C=O)ccc1O [ethyl vanillin],0.919 and 2.2 and 0.978
4,CCCCOC(C)=O [butyl acetate],1.12

# Tested on: OR8H1 clone 1388
# Test: as above
# Settings: 100 µM
row,SMILES,odorant receptor activation
1,CCC(C)=O [2-butanone],1.5
2,CS [methanethiol],1.15
3,CCOc1cc(C=O)ccc1O [ethyl vanillin],1.6 and 0.975
4,CCCCOC(C)=O [butyl acetate],0.2

# Tested on: OR8H2 A105V/I154M/V158L/Y169C/D170Y/Y259H/V284M clone 1214
# Test: as above
# Settings: 100 µM
row,SMILES,odorant receptor activation
1,CCC(C)=O [2-butanone],0.769
2,CS [methanethiol],1.01
3,CCOc1cc(C=O)ccc1O [ethyl vanillin],1.65 and 1.21
4,CCCCOC(C)=O [butyl acetate],0.919

# Tested on: OR8H3 P137S clone 1215
# Test: as above
# Settings: 100 µM
row,SMILES,odorant receptor activation
1,CCC(C)=O [2-butanone],0.594
2,CS [methanethiol],1.02
3,CCOc1cc(C=O)ccc1O [ethyl vanillin],1.34 and 0.974
4,CCCCOC(C)=O [butyl acetate],1.05

# Tested on: OR8I2 clone 1213
# Test: as above
# Settings: 100 µM
row,SMILES,odorant receptor activation
1,CCC(C)=O [2-butanone],0.903
2,CS [methanethiol],1.29
3,CCOc1cc(C=O)ccc1O [ethyl vanillin],1.27 and 1.08
4,CCCCOC(C)=O [butyl acetate],0.871

# Tested on: OR8J1 Y120C clone 1500
# Test: as above
# Settings: 100 µM
row,SMILES,odorant receptor activation
1,CCC(C)=O [2-butanone],0.91
2,CS [methanethiol],0.964
3,CCOc1cc(C=O)ccc1O [ethyl vanillin],1.21 and 2.33 and 1.32
4,CCCCOC(C)=O [butyl acetate],1.36

# Tested on: OR8J3 clone 1149
# Test: as above
# Settings: 100 µM
row,SMILES,odorant receptor activation
1,CCC(C)=O [2-butanone],0.946
2,CS [methanethiol],0.881
3,CCOc1cc(C=O)ccc1O [ethyl vanillin],2.31 and 1.13
4,CCCCOC(C)=O [butyl acetate],1.01

# Tested on: OR8K1 clone 1431
# Test: as above
# Settings: 100 µM
row,SMILES,odorant receptor activation
1,CCC(C)=O [2-butanone],0.906
2,CS [methanethiol],0.977
3,CCOc1cc(C=O)ccc1O [ethyl vanillin],1.22
4,CCCCOC(C)=O [butyl acetate],0.107

# Tested on: OR8K3 L122R clone 1195
# Test: as above
# Settings: 100 µM
row,SMILES,odorant receptor activation
1,CCC(C)=O [2-butanone],0.636
2,CS [methanethiol],0.895
3,CCOc1cc(C=O)ccc1O [ethyl vanillin],1.56 and 1.2
4,CCCCOC(C)=O [butyl acetate],1.02

# Tested on: OR8K5 clone 1150
# Test: as above
# Settings: 100 µM
row,SMILES,odorant receptor activation
1,CCC(C)=O [2-butanone],0.717
2,CS [methanethiol],0.858
3,CCOc1cc(C=O)ccc1O [ethyl vanillin],1.39 and 1.23
4,CCCCOC(C)=O [butyl acetate],0.91

# Tested on: OR8S1 M48V/L82P/R128C/A198T clone 1279
# Test: as above
# Settings: 100 µM
row,SMILES,odorant receptor activation
1,CCC(C)=O [2-butanone],1.17
2,CS [methanethiol],0.84
3,CCOc1cc(C=O)ccc1O [ethyl vanillin],1.02
4,CCCCOC(C)=O [butyl acetate],0.746

# Tested on: OR8U1 clone 1242
# Test: as above
# Settings: 100 µM
row,SMILES,odorant receptor activation
1,CCC(C)=O [2-butanone],1.32
2,CS [methanethiol],0.912
3,CCOc1cc(C=O)ccc1O [ethyl vanillin],0.541 and 1.38
4,CCCCOC(C)=O [butyl acetate],1.12

# Tested on: OR8U8 clone 1499
# Test: as above
# Settings: 100 µM
row,SMILES,odorant receptor activation
1,CCC(C)=O [2-butanone],1.07
2,CS [methanethiol],0.903
3,CCOc1cc(C=O)ccc1O [ethyl vanillin],1.27 and 2.39 and 1.25
4,CCCCOC(C)=O [butyl acetate],1.18

# Tested on: OR8U9 clone 1439
# Test: as above
# Settings: 100 µM
row,SMILES,odorant receptor activation
1,CCC(C)=O [2-butanone],1.06
2,CS [methanethiol],1.23
3,CCOc1cc(C=O)ccc1O [ethyl vanillin],1.09 and 1.24
4,CCCCOC(C)=O [butyl acetate],0.125

# Tested on: OR9A2 clone 1080
# Test: as above
# Settings: 100 µM
row,SMILES,odorant receptor activation
1,CCC(C)=O [2-butanone],7.26
2,CS [methanethiol],1.13
3,CCOc1cc(C=O)ccc1O [ethyl vanillin],1.17
4,CCCCOC(C)=O [butyl acetate],1.36

# Tested on: OR9A4 clone 1081
# Test: as above
# Settings: 100 µM
row,SMILES,odorant receptor activation
1,CCC(C)=O [2-butanone],2.71
2,CS [methanethiol],1.09
3,CCOc1cc(C=O)ccc1O [ethyl vanillin],2 and 1.19
4,CCCCOC(C)=O [butyl acetate],1.1

# Tested on: OR9G1 clone 1111
# Test: as above
# Settings: 100 µM
row,SMILES,odorant receptor activation
1,CCC(C)=O [2-butanone],26.3
2,CS [methanethiol],1.1
3,CCOc1cc(C=O)ccc1O [ethyl vanillin],1.67 and 1.29
4,CCCCOC(C)=O [butyl acetate],1.01

# Tested on: OR9G4 N191D clone 1109
# Test: as above
# Settings: 100 µM
row,SMILES,odorant receptor activation
1,CCC(C)=O [2-butanone],4.02
2,CS [methanethiol],1.22
3,CCOc1cc(C=O)ccc1O [ethyl vanillin],0.903 and 1.15
4,CCCCOC(C)=O [butyl acetate],1.16

# Tested on: OR9G9 clone 1170
# Test: as above
# Settings: 100 µM
row,SMILES,odorant receptor activation
1,CCC(C)=O [2-butanone],1.17
2,CS [methanethiol],0.988
3,CCOc1cc(C=O)ccc1O [ethyl vanillin],1.31 and 1.04
4,CCCCOC(C)=O [butyl acetate],1.09

# Tested on: OR9I1 clone 1180
# Test: as above
# Settings: 100 µM
row,SMILES,odorant receptor activation
1,CCC(C)=O [2-butanone],1.42
2,CS [methanethiol],0.925
3,CCOc1cc(C=O)ccc1O [ethyl vanillin],1.62 and 1.16
4,CCCCOC(C)=O [butyl acetate],0.829
